The list shows a part of the results.
Experiments:
Assay in all cases: log2 fold change, soluble protein after heating vs DMSO (PISA); higher = thermal stabilisation; K562 lysate, 10 uM; active = over 0.2 and 3.5 SD of the protein, either way, in both replicates (recomputed)
erlotinib = compound: C#Cc1cccc(Nc2ncnc3cc(OCCOC)c(OCCOC)cc23)c1 [erlotinib]
Outline: (§1)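 The values are log-two fold changes in thermal stability compared with solvent controls and come from duplicates. They were obtained by TMTpro 16plex LC-MS/MS, with channel sums equalised, on the supernatant after 21,000xg for 90 min. That supernatant came from crude K562 extract at 1 mg/mL protein treated with 10 μM compound for 30 min, heated for 3 min across 48°C-58°C, pooled and brought to 0.5% NP-40 at 4°C.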

By UniProt entry, the sequences of proteins in these tests, tags left out. Where a name states a change or a piece, a line headed by the entry shows the natural chain unless it says otherwise.
UniProt Q8IY81: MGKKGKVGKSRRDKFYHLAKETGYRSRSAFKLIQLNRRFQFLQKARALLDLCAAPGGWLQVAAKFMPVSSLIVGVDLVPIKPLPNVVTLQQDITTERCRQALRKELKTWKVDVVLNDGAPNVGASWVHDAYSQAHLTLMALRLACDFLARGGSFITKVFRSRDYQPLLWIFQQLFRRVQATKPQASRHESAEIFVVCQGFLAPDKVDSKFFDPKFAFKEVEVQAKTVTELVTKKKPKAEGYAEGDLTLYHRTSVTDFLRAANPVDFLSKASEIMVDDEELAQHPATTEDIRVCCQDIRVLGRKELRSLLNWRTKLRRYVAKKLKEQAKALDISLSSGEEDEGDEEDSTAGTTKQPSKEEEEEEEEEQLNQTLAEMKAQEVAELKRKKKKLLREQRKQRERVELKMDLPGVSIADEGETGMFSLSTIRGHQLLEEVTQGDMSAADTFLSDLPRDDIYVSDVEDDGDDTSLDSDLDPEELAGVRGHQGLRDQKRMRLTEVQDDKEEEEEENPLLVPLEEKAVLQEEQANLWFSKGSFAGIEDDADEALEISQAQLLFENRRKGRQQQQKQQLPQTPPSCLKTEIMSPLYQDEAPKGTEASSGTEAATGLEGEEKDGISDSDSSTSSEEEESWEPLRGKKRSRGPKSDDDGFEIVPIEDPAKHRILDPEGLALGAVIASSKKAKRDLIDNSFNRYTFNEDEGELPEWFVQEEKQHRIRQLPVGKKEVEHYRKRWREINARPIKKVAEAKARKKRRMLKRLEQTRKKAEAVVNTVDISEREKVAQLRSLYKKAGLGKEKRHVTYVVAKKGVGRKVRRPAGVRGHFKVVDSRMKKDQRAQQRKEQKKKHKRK
UniProt Q9UN86: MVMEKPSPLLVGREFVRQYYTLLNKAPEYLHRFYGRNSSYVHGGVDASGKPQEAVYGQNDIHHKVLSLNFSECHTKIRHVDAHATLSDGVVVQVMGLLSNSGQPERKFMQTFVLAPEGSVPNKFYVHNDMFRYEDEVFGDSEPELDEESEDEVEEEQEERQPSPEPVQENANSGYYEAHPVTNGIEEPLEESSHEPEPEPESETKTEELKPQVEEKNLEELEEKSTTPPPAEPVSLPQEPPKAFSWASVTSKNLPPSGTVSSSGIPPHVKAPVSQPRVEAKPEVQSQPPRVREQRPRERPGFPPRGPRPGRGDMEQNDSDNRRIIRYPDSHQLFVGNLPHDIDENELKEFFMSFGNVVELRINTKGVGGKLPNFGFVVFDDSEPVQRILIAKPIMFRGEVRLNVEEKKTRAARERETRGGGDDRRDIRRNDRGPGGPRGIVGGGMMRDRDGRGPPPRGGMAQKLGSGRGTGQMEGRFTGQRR
UniProt P35637: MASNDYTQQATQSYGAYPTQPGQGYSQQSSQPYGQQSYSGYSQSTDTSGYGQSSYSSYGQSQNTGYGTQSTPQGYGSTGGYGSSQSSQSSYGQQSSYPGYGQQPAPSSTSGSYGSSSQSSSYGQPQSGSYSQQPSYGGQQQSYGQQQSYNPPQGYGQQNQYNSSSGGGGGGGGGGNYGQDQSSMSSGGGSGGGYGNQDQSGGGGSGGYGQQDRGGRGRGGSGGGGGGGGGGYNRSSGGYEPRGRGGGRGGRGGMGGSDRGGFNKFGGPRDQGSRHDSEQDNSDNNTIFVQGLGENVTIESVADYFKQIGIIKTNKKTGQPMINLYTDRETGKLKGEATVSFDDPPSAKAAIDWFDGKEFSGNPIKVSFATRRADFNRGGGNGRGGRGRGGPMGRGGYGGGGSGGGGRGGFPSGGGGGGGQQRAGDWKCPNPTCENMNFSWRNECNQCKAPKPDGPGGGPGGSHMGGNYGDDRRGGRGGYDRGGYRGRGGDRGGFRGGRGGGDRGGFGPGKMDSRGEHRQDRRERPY
UniProt Q06547, whole entry, looked up: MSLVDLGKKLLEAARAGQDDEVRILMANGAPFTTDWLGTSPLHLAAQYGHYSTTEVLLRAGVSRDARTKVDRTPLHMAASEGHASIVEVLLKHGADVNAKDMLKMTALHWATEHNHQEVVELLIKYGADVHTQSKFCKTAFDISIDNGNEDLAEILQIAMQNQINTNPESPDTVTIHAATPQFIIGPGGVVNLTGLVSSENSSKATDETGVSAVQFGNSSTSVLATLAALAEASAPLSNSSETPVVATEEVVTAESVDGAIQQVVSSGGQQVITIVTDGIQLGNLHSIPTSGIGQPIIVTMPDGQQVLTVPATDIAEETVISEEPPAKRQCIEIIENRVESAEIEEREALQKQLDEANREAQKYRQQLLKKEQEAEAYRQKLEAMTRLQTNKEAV
UniProt Q96RP9: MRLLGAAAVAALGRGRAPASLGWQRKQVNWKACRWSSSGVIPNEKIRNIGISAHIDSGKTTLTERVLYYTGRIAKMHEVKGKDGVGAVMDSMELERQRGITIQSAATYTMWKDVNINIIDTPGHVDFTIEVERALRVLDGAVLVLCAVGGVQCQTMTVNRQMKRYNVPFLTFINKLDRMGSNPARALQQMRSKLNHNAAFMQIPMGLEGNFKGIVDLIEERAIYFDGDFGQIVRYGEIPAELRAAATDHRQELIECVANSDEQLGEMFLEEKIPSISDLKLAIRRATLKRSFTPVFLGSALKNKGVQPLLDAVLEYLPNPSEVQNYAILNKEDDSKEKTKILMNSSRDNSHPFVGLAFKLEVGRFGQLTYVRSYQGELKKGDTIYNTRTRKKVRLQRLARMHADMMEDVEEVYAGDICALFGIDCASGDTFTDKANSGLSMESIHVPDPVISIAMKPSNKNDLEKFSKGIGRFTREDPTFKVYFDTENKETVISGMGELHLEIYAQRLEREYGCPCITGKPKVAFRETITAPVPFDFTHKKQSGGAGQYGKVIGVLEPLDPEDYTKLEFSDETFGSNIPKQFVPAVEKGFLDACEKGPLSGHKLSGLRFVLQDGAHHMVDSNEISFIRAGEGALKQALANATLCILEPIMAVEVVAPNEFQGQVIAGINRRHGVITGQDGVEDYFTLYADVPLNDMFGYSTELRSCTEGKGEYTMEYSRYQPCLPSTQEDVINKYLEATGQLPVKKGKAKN
UniProt Q96AE4: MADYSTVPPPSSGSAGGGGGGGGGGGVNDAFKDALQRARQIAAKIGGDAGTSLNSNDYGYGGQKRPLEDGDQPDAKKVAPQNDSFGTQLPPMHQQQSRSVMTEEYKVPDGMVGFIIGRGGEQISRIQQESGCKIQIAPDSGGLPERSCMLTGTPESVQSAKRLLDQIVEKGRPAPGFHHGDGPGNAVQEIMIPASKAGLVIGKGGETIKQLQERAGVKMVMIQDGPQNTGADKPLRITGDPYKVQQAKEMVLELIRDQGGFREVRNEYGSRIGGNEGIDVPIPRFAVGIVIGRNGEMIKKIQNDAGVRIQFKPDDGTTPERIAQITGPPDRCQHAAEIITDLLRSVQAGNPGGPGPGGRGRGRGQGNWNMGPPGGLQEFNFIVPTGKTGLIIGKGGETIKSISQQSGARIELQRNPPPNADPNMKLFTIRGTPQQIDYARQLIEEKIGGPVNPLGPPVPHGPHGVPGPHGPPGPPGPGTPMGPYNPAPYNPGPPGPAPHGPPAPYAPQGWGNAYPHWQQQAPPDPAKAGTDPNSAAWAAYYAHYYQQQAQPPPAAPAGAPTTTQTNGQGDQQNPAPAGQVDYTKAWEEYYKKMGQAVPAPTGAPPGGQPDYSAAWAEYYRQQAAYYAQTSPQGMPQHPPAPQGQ
UniProt P04406: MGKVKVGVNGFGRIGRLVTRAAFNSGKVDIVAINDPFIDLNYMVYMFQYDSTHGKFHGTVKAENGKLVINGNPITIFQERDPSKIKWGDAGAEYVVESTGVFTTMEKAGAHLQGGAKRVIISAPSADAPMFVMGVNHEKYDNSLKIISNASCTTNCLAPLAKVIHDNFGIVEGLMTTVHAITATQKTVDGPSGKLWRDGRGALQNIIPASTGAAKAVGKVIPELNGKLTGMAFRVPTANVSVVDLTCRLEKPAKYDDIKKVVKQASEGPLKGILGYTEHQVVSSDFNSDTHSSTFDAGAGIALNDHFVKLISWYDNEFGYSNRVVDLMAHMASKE
UniProt Q01167: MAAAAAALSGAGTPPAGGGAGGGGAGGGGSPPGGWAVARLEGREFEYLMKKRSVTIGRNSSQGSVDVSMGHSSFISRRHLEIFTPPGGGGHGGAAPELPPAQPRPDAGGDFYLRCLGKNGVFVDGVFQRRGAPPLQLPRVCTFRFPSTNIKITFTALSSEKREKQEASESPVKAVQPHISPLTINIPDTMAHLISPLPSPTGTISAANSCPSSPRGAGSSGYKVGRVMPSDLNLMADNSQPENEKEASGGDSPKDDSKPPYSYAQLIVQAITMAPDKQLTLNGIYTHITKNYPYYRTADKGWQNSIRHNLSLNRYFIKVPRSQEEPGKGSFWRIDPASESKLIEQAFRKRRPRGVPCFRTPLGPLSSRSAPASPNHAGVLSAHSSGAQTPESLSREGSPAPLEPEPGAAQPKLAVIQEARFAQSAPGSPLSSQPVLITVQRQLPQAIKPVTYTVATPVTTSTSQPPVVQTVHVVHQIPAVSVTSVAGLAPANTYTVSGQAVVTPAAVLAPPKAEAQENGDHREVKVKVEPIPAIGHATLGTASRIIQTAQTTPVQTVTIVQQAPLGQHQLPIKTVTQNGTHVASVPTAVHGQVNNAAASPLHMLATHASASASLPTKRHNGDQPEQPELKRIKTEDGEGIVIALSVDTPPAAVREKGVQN
UniProt Q9BQS8: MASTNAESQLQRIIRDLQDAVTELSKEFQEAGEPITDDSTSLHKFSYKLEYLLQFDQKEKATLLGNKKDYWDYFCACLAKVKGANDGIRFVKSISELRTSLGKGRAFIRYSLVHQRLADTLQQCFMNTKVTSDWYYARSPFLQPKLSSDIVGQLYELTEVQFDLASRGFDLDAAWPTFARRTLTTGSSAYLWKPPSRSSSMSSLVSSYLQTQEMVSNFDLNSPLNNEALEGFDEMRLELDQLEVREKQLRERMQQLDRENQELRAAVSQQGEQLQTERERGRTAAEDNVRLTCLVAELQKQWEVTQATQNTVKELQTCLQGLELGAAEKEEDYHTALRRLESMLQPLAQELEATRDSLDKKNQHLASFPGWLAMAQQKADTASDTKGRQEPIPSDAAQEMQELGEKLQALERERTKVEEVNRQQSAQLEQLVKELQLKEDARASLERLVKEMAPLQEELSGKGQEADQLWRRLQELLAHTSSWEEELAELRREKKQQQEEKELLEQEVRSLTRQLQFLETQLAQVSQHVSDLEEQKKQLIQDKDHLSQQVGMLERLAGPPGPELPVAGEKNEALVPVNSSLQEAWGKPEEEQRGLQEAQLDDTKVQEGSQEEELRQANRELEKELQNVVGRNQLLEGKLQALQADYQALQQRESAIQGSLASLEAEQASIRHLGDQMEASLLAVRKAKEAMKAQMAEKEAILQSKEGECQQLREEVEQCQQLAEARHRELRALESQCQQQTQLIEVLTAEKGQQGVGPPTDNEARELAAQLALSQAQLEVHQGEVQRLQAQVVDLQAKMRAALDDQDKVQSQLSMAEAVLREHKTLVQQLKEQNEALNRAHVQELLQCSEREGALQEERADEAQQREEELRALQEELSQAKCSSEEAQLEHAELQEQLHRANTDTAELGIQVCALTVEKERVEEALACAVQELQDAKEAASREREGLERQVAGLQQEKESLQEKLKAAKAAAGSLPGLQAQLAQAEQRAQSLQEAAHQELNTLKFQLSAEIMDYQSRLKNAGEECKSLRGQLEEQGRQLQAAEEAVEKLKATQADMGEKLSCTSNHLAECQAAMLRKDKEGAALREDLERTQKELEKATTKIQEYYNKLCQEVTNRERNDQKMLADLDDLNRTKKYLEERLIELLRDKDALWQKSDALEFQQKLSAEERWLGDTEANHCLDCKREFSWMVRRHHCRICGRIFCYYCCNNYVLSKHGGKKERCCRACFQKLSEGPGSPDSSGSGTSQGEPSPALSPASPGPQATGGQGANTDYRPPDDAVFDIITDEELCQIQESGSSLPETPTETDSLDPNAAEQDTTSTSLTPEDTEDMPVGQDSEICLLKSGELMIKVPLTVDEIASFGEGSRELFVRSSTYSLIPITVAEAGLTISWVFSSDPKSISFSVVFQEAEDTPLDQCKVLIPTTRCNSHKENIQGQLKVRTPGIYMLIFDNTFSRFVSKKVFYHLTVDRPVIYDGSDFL
UniProt Q70Z53: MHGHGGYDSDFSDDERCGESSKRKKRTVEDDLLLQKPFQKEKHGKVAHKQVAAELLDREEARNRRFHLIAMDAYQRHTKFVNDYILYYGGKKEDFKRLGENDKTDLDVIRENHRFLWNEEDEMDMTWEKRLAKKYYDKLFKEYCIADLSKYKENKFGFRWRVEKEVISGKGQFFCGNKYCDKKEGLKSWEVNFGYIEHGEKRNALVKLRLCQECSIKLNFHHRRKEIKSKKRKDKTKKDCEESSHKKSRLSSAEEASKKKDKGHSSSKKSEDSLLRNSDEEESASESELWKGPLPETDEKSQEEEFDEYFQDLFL

[1] = compound: C/C(=N\NC(=O)C1=CC(=CC=C1)S(=O)(=O)N2CCOCC2)/C3=C(C=CC(=C3)Cl)O
Outline: as §1

[2] = compound: C1=CC(=CC=C1C2=NC3=C(N2)C=C(C=C3)C(=O)N)OC4=CC=C(C=C4)Cl
Outline: as §1

[3] = compound: C1=CC2=C(C=CC(=C2)/C=C\3/C(=O)NC(=NCC4=CC=CS4)S3)N=C1
Outline: as §1

[4] = compound: C1=CC2=NC=CN=C2C=C1/C=C/3\C(=O)NC(=O)S3
Outline: as §1

[5] = compound: C1=CC=C(C=C1)C2=NC(=C(N2)C3=CC=NC=C3)C4=CC(=C(C=C4)Cl)O
Outline: as §1

[6] = compound: C1=CC=C2C(=C1)C3=NNC4=CC=CC(=C43)C2=O
Outline: as §1

[7] = compound: C1CCN(C1)C(=O)NC2=CC=CC(=C2)NC3=NC=C(C(=N3)NCCC4=CN=CN4)Br
Outline: as §1

[8] = compound: C1CN(CCC1(CC2=CC=C(C=C2)Cl)N)C3=NC=NC4=C3C=CN4
Outline: as §1

IRAK-1-4 Inhibitor I = compound: C1COCCN1CCN2C3=CC=CC=C3N=C2NC(=O)C4=CC(=CC=C4)[N+](=O)[O-] [IRAK-1-4 Inhibitor I]
Outline: as §1

ibrutinib = compound: C=CC(=O)N1CCC[C@@H](n2nc(-c3ccc(Oc4ccccc4)cc3)c3c(N)ncnc32)C1 [ibrutinib]
Outline: as §1

[9] = compound: CC(=O)c1cnc2ccc(-c3cc(Cl)c(O)c(Cl)c3)nc2c1N[C@H]1CC[C@H](CN(C)C)CC1
Outline: as §1

ralimetinib = compound: CC(C)(C)Cn1c(N)nc2ccc(-c3[nH]c(C(C)(C)C)nc3-c3ccc(F)cc3)nc21 [ralimetinib]
Outline: as §1

[10] = compound: CC(C)(O)CC(=O)NCCn1ccc2ncnc(Nc3ccc(Oc4cccc(C(F)(F)F)c4)c(Cl)c3)c21
Outline: as §1

[11] = compound: CC(C)C1=C2N=C(C=C(N2N=C1)NCC3=CC=CC=C3)NCCCCCCN
Outline: as §1

[12] = compound: CC1=C(C(CC(=O)N1)C2=CC=C(C=C2)C(F)(F)F)C(=O)NC3=C(C=C4C(=C3)C=NN4)F
Outline: as §1

[13] = compound: CC1=C(C2=C(C=C1)C(=O)C3=CC=CC=C3N2CCCN)C
Outline: as §1

[14] = compound: CC1=C(C=C(C=C1)NC(=O)C2=CC(=CC=C2)C(C)(C)C#N)NC3=CC4=C(C=C3)N=CN(C4=O)C
Outline: as §1

[15] = compound: CC1=C(C=C(C=C1)NC(=O)C2=CC(=CC=C2)N(C)C)NC(=O)C3=CC=C(C=C3)O
Outline: as §1

[16] = compound: CC1=CC=C(C=C1)SC2=C3C=C(SC3=CN=C2)C(=O)N
Outline: as §1

Measured: log2 fold change

GART (UniProt P22102)
inactive: erlotinib -0.007 | [1] 0.022 | [2] -0.025 | [3] -0.013 | [4] 0.016 | [5] 0.015 | [6] -0.011 | [7] -0.001 | [8] -0.003 | IRAK-1-4 Inhibitor I 0.005 | ibrutinib 0.007 | [9] 0.009 | ralimetinib 0.01 | [10] 0.036 | [11] 0.013 | [12] -0.014 | [13] 0.009 | [14] -0.027 | [15] -0.006 | [16] 0.021

FTSJ3 (UniProt Q8IY81)
inactive: erlotinib 0.064 | [1] -0.157 | [2] 0.002 | [3] -0.014 | [4] -0.028 | [5] 0.025 | [6] 0.065 | [7] 0.012 | [8] 0.022 | IRAK-1-4 Inhibitor I -0.018 | ibrutinib 0.05 | [9] 0.005 | ralimetinib 0.026 | [10] -0.033 | [11] 0.086 | [12] 0.016 | [13] -0.037 | [14] -0.01 | [15] 0.002 | [16] 0.04

G3BP2 (UniProt Q9UN86)
inactive: erlotinib 0.023 | [1] -0.071 | [2] -0.018 | [3] 0.006 | [4] -0.012 | [5] 0.012 | [6] -0.041 | [7] -0.044 | [8] 0.009 | IRAK-1-4 Inhibitor I -0.012 | ibrutinib -0.019 | [9] -0.004 | ralimetinib 0.003 | [10] -0.011 | [11] 0.053 | [12] 0.026 | [13] -0.059 | [14] -0.096 | [15] -0.007 | [16] 0.008

FUS (UniProt P35637)
inactive: erlotinib -0.009 | [1] 0.001 | [2] -0.006 | [3] -0.007 | [4] -0.017 | [5] 0.005 | [6] 0.072 | [7] 0 | [8] 0.017 | IRAK-1-4 Inhibitor I 0.002 | ibrutinib 0 | [9] -0.065 | ralimetinib -0.041 | [10] 0.005 | [11] 0.032 | [12] -0.008 | [13] -0.011 | [14] -0.014 | [15] -0.011 | [16] 0.023

GABPB1 (UniProt Q06547)
inactive: erlotinib -0.004 | [1] 0.033 | [2] 0.012 | [3] 0.028 | [4] 0.035 | [5] 0.016 | [6] -0.009 | [7] 0.026 | [8] -0.008 | IRAK-1-4 Inhibitor I -0.042 | ibrutinib -0.106 | [9] -0.012 | ralimetinib 0.021 | [10] 0.014 | [11] 0 | [12] 0.013 | [13] -0.026 | [14] 0.003 | [15] 0.071 | [16] 0.024

GFM1 (UniProt Q96RP9)
inactive: erlotinib -0.01 | [1] -0.023 | [2] 0.044 | [3] -0.007 | [4] -0.014 | [5] 0.009 | [6] 0.035 | [7] -0.003 | [8] 0.005 | IRAK-1-4 Inhibitor I -0.018 | ibrutinib 0.017 | [9] 0.04 | ralimetinib -0.025 | [10] -0.019 | [11] 0.031 | [12] -0.011 | [13] 0.011 | [14] 0.012 | [15] -0.008 | [16] -0.017

FUBP1 (UniProt Q96AE4)
inactive: erlotinib -0.201 | [1] -0.021 | [2] -0.101 | [3] 0.116 | [4] -0.002 | [5] 0.008 | [6] 0.022 | [7] -0.044 | [8] 0.122 | IRAK-1-4 Inhibitor I 0.046 | ibrutinib 0.088 | [9] 0.04 | ralimetinib 0.067 | [10] -0.042 | [11] 0.046 | [12] 0.063 | [13] -0.052 | [14] -0.024 | [15] -0.105 | [16] -0.002

FRYL (UniProt O94915)
inactive: erlotinib 0.008 | [1] 0.002 | [2] -0.03 | [3] 0.013 | [4] 0.01 | [5] -0.024 | [6] -0.001 | [7] -0.026 | [8] 0.022 | IRAK-1-4 Inhibitor I 0.008 | ibrutinib 0 | [9] 0 | ralimetinib 0.026 | [10] -0.051 | [11] -0.054 | [12] -0.01 | [13] -0.02 | [14] -0.007 | [15] 0.014 | [16] 0.027

GDPD1 (UniProt Q8N9F7)
inactive: erlotinib -0.037 | [1] 0.248 | [2] -0.112 | [3] 0.001 | [4] -0.041 | [5] 0.011 | [6] -0.024 | [7] 0.032 | [8] 0.086 | IRAK-1-4 Inhibitor I 0.038 | ibrutinib 0.039 | [9] -0.058 | ralimetinib 0.06 | [10] -0.137 | [11] 0.047 | [12] -0.032 | [13] -0.001 | [14] 0.055 | [15] 0.024 | [16] -0.063

FTO (UniProt Q9C0B1)
inactive: erlotinib 0 | [1] -0.203 | [2] -0.016 | [3] -0.016 | [4] 0.046 | [5] -0.004 | [6] 0.015 | [7] 0.018 | [8] 0.007 | IRAK-1-4 Inhibitor I 0.032 | ibrutinib 0.023 | [9] 0.011 | ralimetinib -0.001 | [10] 0.011 | [11] 0.052 | [12] 0.007 | [13] -0.001 | [14] -0.04 | [15] -0.019 | [16] 0.006

GAPDH (UniProt P04406)
inactive: erlotinib -0.007 | [1] -0.032 | [2] 0.031 | [3] 0.006 | [4] -0.006 | [5] -0.005 | [6] 0.028 | [7] 0.027 | [8] -0.034 | IRAK-1-4 Inhibitor I 0.003 | ibrutinib 0.037 | [9] 0.021 | ralimetinib -0.006 | [10] 0.02 | [11] 0.008 | [12] -0.01 | [13] -0.008 | [14] -0.037 | [15] -0.014 | [16] 0.009

FOXK2 (UniProt Q01167)
inactive: erlotinib -0.03 | [1] -0.078 | [2] 0.018 | [3] 0.05 | [4] -0.046 | [5] 0.033 | [6] 0.013 | [7] -0.039 | [8] -0.014 | IRAK-1-4 Inhibitor I -0.006 | ibrutinib 0.054 | [9] -0.055 | ralimetinib -0.012 | [10] -0.109 | [11] 0.031 | [12] -0.037 | [13] 0.041 | [14] 0.01 | [15] -0.016 | [16] 0.018

FYCO1 isoform 4 (UniProt Q9BQS8)
inactive: erlotinib 0.029 | [1] 0.026 | [2] 0.014 | [3] -0.01 | [4] -0.019 | [5] -0.006 | [6] -0.016 | [7] -0.013 | [8] 0.009 | IRAK-1-4 Inhibitor I 0 | ibrutinib -0.012 | [9] -0.015 | ralimetinib 0.021 | [10] -0.026 | [11] 0 | [12] 0.029 | [13] -0.019 | [14] -0.003 | [15] -0.028 | [16] 0

GBA (UniProt P04062)
inactive: erlotinib 0.038 | [1] -0.051 | [2] -0.043 | [3] -0.005 | [4] -0.054 | [5] 0.004 | [6] -0.016 | [7] 0.074 | [8] 0.024 | IRAK-1-4 Inhibitor I -0.019 | ibrutinib 0.014 | [9] -0.025 | ralimetinib -0.038 | [10] 0.005 | [11] 0.028 | [12] 0.042 | [13] 0.022 | [14] 0.054 | [15] 0.012 | [16] -0.105

GAMT (UniProt Q14353)
inactive: erlotinib 0.018 | [1] -0.008 | [2] 0.033 | [3] -0.008 | [4] -0.01 | [5] -0.016 | [6] 0.036 | [7] 0.035 | [8] 0.066 | IRAK-1-4 Inhibitor I -0.001 | ibrutinib 0.029 | [9] -0.008 | ralimetinib 0.019 | [10] 0.013 | [11] -0.041 | [12] 0.071 | [13] -0.009 | [14] -0.003 | [15] -0.003 | [16] 0.005

FRA10AC1 (UniProt Q70Z53)
inactive: erlotinib -0.001 | [1] 0.012 | [2] 0.018 | [3] 0.025 | [4] -0.011 | [5] 0.004 | [6] -0.015 | [7] -0.019 | [8] -0.011 | IRAK-1-4 Inhibitor I -0.011 | ibrutinib -0.025 | [9] 0.014 | ralimetinib -0.002 | [10] 0.025 | [11] -0.003 | [12] -0.002 | [13] 0.007 | [14] -0.015 | [15] -0.022 | [16] -0.057

Taken from the entries so far (4 entries):
FOXK2 (UniProt Q01167)
inactive: erlotinib -0.03 | [1] -0.078 | [2] 0.018 | [3] 0.05 | [4] -0.046 | [5] 0.033 | [6] 0.013 | [7] -0.039 | [8] -0.014 | IRAK-1-4 Inhibitor I -0.006 | ibrutinib 0.054 | [9] -0.055 | ralimetinib -0.012 | [10] -0.109 | [11] 0.031 | [12] -0.037 | [13] 0.041 | [14] 0.01 | [15] -0.016 | [16] 0.018

FYCO1 isoform 4 (UniProt Q9BQS8)
inactive: erlotinib 0.029 | [1] 0.026 | [2] 0.014 | [3] -0.01 | [4] -0.019 | [5] -0.006 | [6] -0.016 | [7] -0.013 | [8] 0.009 | IRAK-1-4 Inhibitor I 0 | ibrutinib -0.012 | [9] -0.015 | ralimetinib 0.021 | [10] -0.026 | [11] 0 | [12] 0.029 | [13] -0.019 | [14] -0.003 | [15] -0.028 | [16] 0

GBA (UniProt P04062)
inactive: erlotinib 0.038 | [1] -0.051 | [2] -0.043 | [3] -0.005 | [4] -0.054 | [5] 0.004 | [6] -0.016 | [7] 0.074 | [8] 0.024 | IRAK-1-4 Inhibitor I -0.019 | ibrutinib 0.014 | [9] -0.025 | ralimetinib -0.038 | [10] 0.005 | [11] 0.028 | [12] 0.042 | [13] 0.022 | [14] 0.054 | [15] 0.012 | [16] -0.105

GAMT (UniProt Q14353)
inactive: erlotinib 0.018 | [1] -0.008 | [2] 0.033 | [3] -0.008 | [4] -0.01 | [5] -0.016 | [6] 0.036 | [7] 0.035 | [8] 0.066 | IRAK-1-4 Inhibitor I -0.001 | ibrutinib 0.029 | [9] -0.008 | ralimetinib 0.019 | [10] 0.013 | [11] -0.041 | [12] 0.071 | [13] -0.009 | [14] -0.003 | [15] -0.003 | [16] 0.005

Reference: the supplement of paper PMC10849652
